Test results reported in US20050009042A1 (AVENTIS PHARMA S A, published 2005).
Results are given in words; binding and its absence hold for the method and conditions named. For part of these data: Binding calls can cover weak binding; strength is not graded here. Where a sequence is shown, tags or fusion partners need not be part of it. Values belong to the binder of their own block, whether it stands above or below them.

Tests used:
β-arrestine2-YFP = assay: BRET in living HEK cells, equimolar coexpression
OB-Rs-YFP = assay: BRET in living cells, equimolar coexpression

binding (β-arrestine2-YFP): no binding
binding (OB-Rs-YFP): binds
B1: OB-RGRP-Luc (other)
chain: MAGVKALVALSFSGAIGLTFLMLGCALEDYGVYWPLFVLIFHAISPIPHFIAKRVTYDSDATSSACRELAYFFTTGIVVSAFGFPVILARVAVIKWGACGLVLAGNAVIFLTIQGFFLIFGRGDDFSWEQW
notes: Expressed in cells from pcDNA3-OB-RGRP-Luc; also called OB-RGRP-Rluc; not shown: Renilla luciferase, coding region from vector pRL-CMV (Promega)

binding (OB-Rs-YFP): binds
B2: MYO47-Luc (other)
chain: MAGIKALISLSFGGAIGLMFLMLGCALPIYNKYWPLFVLFFYILSPIPYCIARRLVDDTDAMSNACKELAIFLTTGIVVSAFGLPIVFARAHLIEWGACALVLTGNTVIFATILGFFLVFGSNDDFSWQQW
notes: also called MY047-Rluc; not shown: Renilla luciferase (vector pcDNA3-Rluc)
